Reference: paper PMC9681780
These are yes or no findings as the source states them, for the method shown. In cells and extracts the contact can be indirect. These calls come from enrichment with a bait or labelling near it, and not all partners need be listed. Sequences can lack the tags named with a protein.

Target: T1, PRSS22 wild type with C-terminal Flag tag (pcDNA3.1-PRSS22) (human) (UniProt Q9GZN4)
T1 sequence: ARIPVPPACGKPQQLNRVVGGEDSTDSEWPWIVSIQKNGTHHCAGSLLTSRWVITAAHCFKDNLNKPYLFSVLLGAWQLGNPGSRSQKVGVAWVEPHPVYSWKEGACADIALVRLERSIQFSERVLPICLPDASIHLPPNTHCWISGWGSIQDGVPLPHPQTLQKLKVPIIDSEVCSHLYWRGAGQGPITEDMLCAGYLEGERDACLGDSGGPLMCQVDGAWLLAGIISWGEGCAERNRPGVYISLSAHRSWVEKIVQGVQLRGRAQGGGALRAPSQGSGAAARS
Test: affinity purification with mass spectrometry; 1000 μg total protein of MDA-MB-231 cells transfected with Flag-tagged PRSS22 plasmids, incubated with Flag Tag Immunomagnetic Beads at 4 °C overnight; washed with TBST; SDS-PAGE, silver staining, differential bands analysed by mass spectrometry

- binding: binds
B1: ANXA1 (Annexin A1) (protein, UniProt P04083 1-346)
chain: MAMVSEFLKQAWFIENEEQEYVQTVKSSKGGPGSAVSPYPTFNPSSDVAALHKAIMVKGVDEATIIDILTKRNNAQRQQIKAAYLQETGKPLDETLKKALTGHLEEVVLALLKTPAQFDADELRAAMKGLGTDEDTLIEILASRTNKEIRDINRVYREELKRDLAKDITSDTSGDFRNALLSLAKGDRSEDFGVNEDLADSDARALYEAGERRKGTDVNVFNTILTTRSYPQLRRVFQKYTKYSKHDMNKVLDLELKGDIEKCLTAIVKCATSKPAFFAEKLHQAMKGVGTRHKALIRIMVSRSEIDMNDIKAFYQKMYGISLCQAILDETKGDYEKILVALCGGN
